# Experimental data from PubChem BioAssay AID1347423 (Functional Genomics Laboratory (NCATS/FGL), 2020).
# In all, about 52,000 sequences went through this assay and about 210 (0.4%) were called active.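 How the source made its calls: active means gene whose silencing raises cell survival under the drug, median off-target-corrected z-score across its silencing RNAs 2 or more; inactive means the rest.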 Some of the results follow.
# Assay: Resistance to Poly (ADP-Ribose) Polymerase inhibitor: Gene Identification via Genome-wide siRNA Screen
# Conditions: mouse BRCA2 R2336H ES cells, olaparib, CellTiter-Glo viability; hits give high values
# Summary of the method: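 Mouse BRCA2 R2336H ES cells were reverse-transfected with siRNA (20 nM final), treated at 48 h with 500 nM olaparib, and read by CellTiter-Glo after 72 h. Scores: MAD-based z per siRNA, median per gene, seed off-target correction.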
row,Sequence,z-score
1,CCUUGAGAAUAUGCUAAAATT against Abca15,inactive: 2.02
2,GGAAGUUAGUGAGUCUAUGTT against Rel,inactive: -1.3
3,GGAAUAGGCCUUCUUGCUGTT against Matr3,inactive: -1.01
4,GGUUACAGAACUCAACAAUTT against Dok5,inactive: 0.397
5,UUGGGAAAACCAUGAUGCATT against 2010100O12Rik,inactive: -0.506
6,GGUUCGAGAAAACAACUACTT against 2610027O18Rik,inactive: 0.402
7,GCAUUGAUGUGAUUGAACCTT against Plxnb3,inactive: -0.0869
8,CGUGAUGUACAUGCAGGAUTT against 4930570C03Rik,inactive: -0.669
9,CCUUUUACUCUAACGGACUTT against 4921507P07Rik,inactive: -1.11
10,GGAUGAUCAAAGCAUUGAUTT against Dmtf1,inactive: -1.36
11,GCUCAUCCAUCGUAGUAAGTT against Gm93,inactive: 0.507
12,GCUGCUGGAAACUAGACUGTT against Cyp2b13,inactive: -0.961
13,CCUGCAAUCAAAACAUCAATT against V1rc1,inactive: 1.73
14,GUUAUCAGGAAGGAAAGCCTT against 1110058L19Rik,inactive: -0.1
15,GGCAUCGUCUGCACAAAGATT against Fbn2,inactive: 1.93
16,GCCAGAACUGAUCGAAAUGTT against Myh2,inactive: 1.63
17,CCCGCACUCUUAGCAAUUATT against BC034507,inactive: -0.559
18,CCCAAUUGUAGAGUCAUGGTT against 1810048P08Rik,inactive: 0.934
19,GGCACUACUUCUAUCGUAGTT against Repin1,inactive: 0.153
20,GCACUUUGUAUGUCUAUCUTT against Tnfaip1,inactive: -0.337
21,GGAAGAUGUUUUCAGACUCTT against Polm,inactive: 0.642
22,CCGUAAUUACCUAAAACUCTT against 4933431N12Rik,inactive: -0.168

# 6 entries from above, tab-delimited.
row	Sequence	z-score
7	GCAUUGAUGUGAUUGAACCTT against Plxnb3	inactive: -0.0869
8	CGUGAUGUACAUGCAGGAUTT against 4930570C03Rik	inactive: -0.669
9	CCUUUUACUCUAACGGACUTT against 4921507P07Rik	inactive: -1.11
10	GGAUGAUCAAAGCAUUGAUTT against Dmtf1	inactive: -1.36
11	GCUCAUCCAUCGUAGUAAGTT against Gm93	inactive: 0.507
12	GCUGCUGGAAACUAGACUGTT against Cyp2b13	inactive: -0.961

# Further results follow:

row,Sequence,z-score
1,GGAUGUGCUGACCUUACAGTT against Gaa,inactive: 0.312
2,GCAUAAUGAAGUUCCAAAUTT against Cast1,inactive: 0.19
3,GGUAUGUGAUACAUCUAUUTT against Zfp52,inactive: -0.301
4,GGUUUGCCCAGGAAUACAATT against Adprhl2,inactive: -1.28
5,CCUUCCUAAUCUCUUGUUCTT against Rfc4,inactive: -0.109
6,GGCCCUCAACCUAAUUAUGTT against Sec24c,inactive: 0.96
7,GUAAGUUGUUUGAGGAAAGTT against Defb3,inactive: 0.755
8,CGCAAGCCAAUCUUCGAAUTT against A230050P20Rik,inactive: 0.522
9,GGAGGUGGUACAAUACACCTT against Gsg1,inactive: 0.036
10,CAAUGUGCAGAGUUUCCGATT against LOC547349,inactive: -1.17
11,GCAGCAUGCCUGAAUAUUUTT against 2510048K03Rik,inactive: 1.49
12,GUUCAACGAGAGUUCCAGUTT against Olfr898,inactive: -0.166
13,GGUCAAGUGCGAGAAACUCTT against Mafb,inactive: -0.934
14,GGUAAAGUAGGGAUGGAAUTT against Inpp4b,inactive: 2.01
15,GGACAGAAGAAGAAAGCCCTT against Gpr22,inactive: 0.46
16,GCCAUGUCAAUCAAUCACUTT against 8430423A01Rik,inactive: 0.706
17,CCAUGGCGAUGUCAUGUUCTT against Kcnrg,inactive: 1.05
18,GGUCUGGUGUUGUAGGAUATT against Map1lc3b,inactive: -0.598
19,CCAACACGCGCUCUUUUGATT against Gm1568,inactive: 0.259
20,GUGUCAUUUCCCGGGACAUTT against Atp5g1,inactive: -0.442
21,GGAUAUCGAGGAGAUGAUCTT against Aoc3,inactive: 1.68
22,CGAGAUCUCACAACUUAUATT against 4930431B11Rik,inactive: 1.05

row,Sequence,z-score
1,GGUUAAAAUGAGCUUGUUGTT against Rngtt,inactive: -0.395
2,GGAAGAAGAAGUUAUUGUGTT against BC025446,inactive: 0.193
3,GUCAUCAGGACUGGGAAGUTT against Sprr2b,inactive: -1.13
4,CCGUCGUCCUAGAAAAACCTT against 4921525L17Rik,inactive: 1.49
5,CGCAGUCACACCUUGUUAUTT against Cds2,inactive: 1.15
6,CCGUUAAGGUUGAUCUAAUTT against 2810027O19Rik,inactive: -0.419
7,GGUUUCCUUUUUGUUCAUUTT against Dlgh3,inactive: 0.128
8,GGGAAAAAUAUCAGUUAUGTT against Khdrbs1,active: 1.08
9,GGUGCUAAAAACUCAAGUCTT against Tctex1,inactive: -0.513
10,GGGCGAGAAGUUUAAACUUTT against Dnaja4,inactive: -0.692
11,GGUAUUGUGGCCAGUAUUUTT against Ptdss2,inactive: -0.247
12,GCUACAGAUACCUCGGAUATT against Psme1,inactive: -1.15
13,GGGAAAUGGUGAAUCACAGTT against Dpp8,inactive: 0.967
14,GGAAGACUAUUUUCUGUAUTT against Gabarapl1,inactive: 1.13
15,CCUGAUAUACCAGCCACCGTT against Pxmp3,inactive: 0.939
16,GGAGCUGUUUACCAUGUCATT against Rgl1,inactive: -1.19
17,UGCCGCUGCUGAUCCUUACTT against D11Bwg0517e,inactive: -0.161
18,GGUAACCUAGUGUAAGUUUTT against 2410024A21Rik,inactive: -1.12
19,GGACAUCGGCUACAACACCTT against Fzd10,inactive: 0.716
20,CGCCUUAAACGAAGCUGCUTT against 1700034E13Rik,inactive: 0.557
21,GGCAUGCAGGGUAUUGCGUTT against Chtf18,inactive: 0.0837
22,CCAGAUCCGGACAAUUGACTT against Ppp4c,inactive: 1.13
